From PMC3511376
These are yes or no findings as the source states them, for the method shown.

Target: HIV-1 envelope glycoprotein gp120 (YU2) (HIV-1 (YU2)) (UniProt P35961)
Assay: condition: only with 1 mM EDTA in the running buffer (Langerin ECD at 500 nM); SPR; gp120YU2 functionalised surface; Langerin ECD injected at 500 nM with 1 mM EDTA in the running buffer in place of 4 mM Ca2+; both purified

Q: “Langerin extracellular domain (ECD) (from UniProt Q9UJ71 65-328) (domain or fragment)” was tested. Which binding did it give?
A: The binding was “no binding”.
